Among the data in publication PMC8102515 are binding values, retold here.

Results are given in words; binding and its absence hold for the method and conditions named. Some entries that bind do so weakly or less than the wild type.

For test [1], the target named is T1, human peroxiredoxin 6 (human), P30041.
T1 chain: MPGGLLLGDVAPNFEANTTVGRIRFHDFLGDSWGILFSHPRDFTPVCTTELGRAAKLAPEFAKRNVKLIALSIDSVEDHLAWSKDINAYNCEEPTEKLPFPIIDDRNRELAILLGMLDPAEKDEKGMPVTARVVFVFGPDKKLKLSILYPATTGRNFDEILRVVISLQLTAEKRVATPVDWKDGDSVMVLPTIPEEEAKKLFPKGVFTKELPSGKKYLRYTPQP
Put plainly: SEC; Sephadex G-100 column (44 ml bed volume), hPrdx6 1 mg/ml, 10 mM Tris-HCl buffer pH 7.0; void volume by blue dextran; both purified. Conditions: remark: other sources report otherwise.

Test [2] shares this target. Nature of the test: SEC; Sephadex G-100 column (44 ml bed volume), hPrdx6 1 mg/ml, 10 mM sodium acetate buffer pH 4.0; void volume by blue dextran; both purified. Conditions: remark: other sources report otherwise. In general terms: In gel filtration, larger molecules generally elute earlier.

B1: human peroxiredoxin 6, P30041 1-224 (enzyme)
chain: T1 chain
In the case of B1, the binding entry in test [1] and in test [2] was “binds” each time.
